From the supplement of paper PMC7125110 come the findings set out here.

B1: glmS ribozyme (parent)
chain: AUAAAAGCGCCAGAACUACAGAAAUGUAGUUGACGAGGAGGAGGUUUAUCGAAUUUUCGGCGGAUGCCUCCAAA

± gives the standard error. Many entries were measured with a wide error.

Variants of B1 are the subject of one data set. The data set can be described thus: kcat; higher = faster cleavage; RNA array. As to conditions: with glucosamine-6-phosphate. In short, it runs like this:
(§1)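 On sequenced MiSeq chips, barcoded ribozyme variants were made in situ by E. coli RNA polymerase and followed at 37 °C through a hybridised Cy3 probe. Glucosamine-6-phosphate was flowed in at 40 μM to 10 mM in HEPES/KCl/Mg(OAc)2 buffer. Exponential fits to normalised per-tile medians gave kobs, and weighted Michaelis–Menten fits gave kcat and KM.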
As to AUAAAAGCGCCAGAACUACAGAAAUGUAGUUAACGAGGAGGAGGUUAAUCGAAUUUUCGGCGGAUGCCUCCAAA, the turnover number (kcat) (commonly the maximal rate divided by the concentration of active sites) was found to be 0.00357 ± 0.0028 s⁻¹.
The same measure, in the same setting: the figure for AUAAAAGCGCCAGAACUACAGAAAUGUAGUAGACGAGGAGGAGGUUUAUCGAAUUUUCGGCGGAUGCCUACAAA is 0.000251 ± 0.00014 s⁻¹; for AUAAAAGCGCCAGAACUACAGAAAUGUAGGUCACGAGGAGGAGGUUUAUCGAAUUUUCGGCGGAUGCCUCCAAA it is 0.000158 ± 2.5e-05 s⁻¹; for AUAAAAGCGCCAGAACUACAGAAAUGUAGGUGACGAGGAGGAGGUUUAUCGUAUUUUCGGCGGAUGCCUCCAAA it is 6.83e-05 ± 9.4e-06 s⁻¹.
In the case of AUAAAAGCGCCAGAACUACAGAAAUGUAGGUGACGAGGAGGAGGUUUAUCGAGUUUUCGGCGGAUGCCUCCAAA, the kcat stood at 0.0121 ± 0.0069 s⁻¹.
With AUAAAAGCGCCAGAACUACAGAAAUGUAGCUGACGAGGAGGAGGUUUAUAGAAUUUUCGGCGGAAGCCGCCAAA, the turnover number (kcat) was determined as 4.97e-05 ± 2.9e-05 s⁻¹.
AUAAAAGCGCCAGAACUACAGAAAUGUAUUUGACGAGGAAGAGGAUUAUCGAAUUUUCGGCGGAUGCCUCCAAA: the kcat came out at 0.000632 ± 0.00034 s⁻¹.
For AUAAAAGCGCCAGAACUACAGAAAUGUAGUGGACGAGGAGGGGGUUUAUCGAAUUUUCGGCGGAUGCCUCCAAA, the kcat is 0.0163 ± 0.0088 s⁻¹.
Consider AUAAAAGCGCCAGAACUACAGAAAUGUAGUUAACGAGGAGGAGGUUUAUCGAAUUUUCGGCGGAUGCCUUCAAA, for which the kcat came out at 0.00385 ± 0.0022 s⁻¹.
On to AUAAAAGCGCCAGAACUACAGAAAUGUAGGUGACGAGGAGGAGGUUUAUCGAAUUUUCGGCGGAUGCCUUCAAA, for which the kcat was 0.00176 ± 0.00098 s⁻¹.
Still for that read-out and setting: the figure for AUAAAAGCGCCAGAACUACAGAAAUGUAGUGGACGAGGAGGAGGUUUAUCGAGUUUUCGGCGGAUGCCUCCAAA is 0.0102 ± 0.0085 s⁻¹; for AUAAAAGCGCCAGAACUACAGAAAUGUAGUAGACGAGGAGGAGGUUUAUCGAAUUUUCGGCGGGUGCCUCCAAA it is 0.00695 ± 0.0038 s⁻¹.
Regarding AUAAAAGCGCCAGAACUACAGAAAUGUAGAUGACGAGGAGGAGGUUGAUCGAAUUUUCGGCGGAUGCCUCCAAA, the catalytic constant (kcat) stood at 0.000918 ± 0.00028 s⁻¹.
For the variant AUAAAAGCGCCAGAACUACAGAAAUGUAGAUGACGAGGAGGAGGUUUAUCGAAUUUUCGGCGGAUGCCUCGAAA, the kcat amounted to 0.000488 ± 0.00044 s⁻¹.
Regarding AUAAAAGCGCCAGAACUACAGAAAUGUAGUAGACGAGGAGGAGGUUUAUCGAAUUUUCGGCGGAUGCCCCCAAA, the catalytic constant (kcat) is 0.00454 ± 0.0045 s⁻¹.
Consider AUAAAAGCGCCAGAACUACAGAAAUGUAGAUGACGAGGAGGAGGUUUAUCGAAUUUUCGGCGGAGGCCUCCAAA, for which the kcat is 0.00214 ± 0.00022 s⁻¹.
The same measure, in the same setting: under AUAAAAGCGCCAGAACUACAGAAAUGUAGGUGACGAGGAGGAGGUUUAUCGAAUGUUCGGCGGAUGCCUCUAAA stands 0.00602 ± 0.0031 s⁻¹; under AUAAAAGCGCCAGAACUACAGAAAUGUAGUGUACGAGGAGGAGGUUUAUCGAAUUUUCGGCGGAUGCCUCCAAA, 0.00268 ± 0.0014 s⁻¹.
On the same count and under the same terms, under AUAAAAGCGCCAGAACUACAGAAAUGUAGCUGACGAGGAGGAGGUUUAUCGAAUUUUGGGCGGAUGCCUCCAAA stands 2e-05 ± 1.6e-06 s⁻¹.

A further data set covers variants of B1. The data set is described as follows: KM; higher = weaker cofactor use; RNA array. As to conditions: with glucosamine-6-phosphate. In short, it runs like this: as §1
For AUAAAAGCGCCAGAACUACAGAAAUGUAGUAGACGAGGAGGAGGUUUAUCGAAUUUUCGGCGGAUGCCUACAAA, the KM (commonly the substrate concentration at which the rate is half of its maximum) stood at 7490 ± 7000 µM.
Regarding AUAAAAGCGCCAGAACUACAGAAAUGUAGGUCACGAGGAGGAGGUUUAUCGAAUUUUCGGCGGAUGCCUCCAAA, the KM was 1310 ± 850 µM.
Still for that read-out and setting: the figure for AUAAAAGCGCCAGAACUACAGAAAUGUAGGUGACGAGGAGGAGGUUUAUCGUAUUUUCGGCGGAUGCCUCCAAA is 2050 ± 1100 µM; for AUAAAAGCGCCAGAACUACAGAAAUGUAGGUGACGAGGAGGAGGUUUAUCGAGUUUUCGGCGGAUGCCUCCAAA it is 2780 ± 2200 µM.
Same read-out and setting: under AUAAAAGCGCCAGAACUACAGAAAUGUAUUUGACGAGGAAGAGGAUUAUCGAAUUUUCGGCGGAUGCCUCCAAA stands 2530 ± 2300 µM; under AUAAAAGCGCCAGAACUACAGAAAUGUAGUGGACGAGGAGGGGGUUUAUCGAAUUUUCGGCGGAUGCCUCCAAA, 2250 ± 1800 µM.
As for AUAAAAGCGCCAGAACUACAGAAAUGUAGUUAACGAGGAGGAGGUUUAUCGAAUUUUCGGCGGAUGCCUUCAAA, the Michaelis-Menten constant (KM) came to 3520 ± 2600 µM.
The same measure, in the same setting: the figure for AUAAAAGCGCCAGAACUACAGAAAUGUAGGUGACGAGGAGGAGGUUUAUCGAAUUUUCGGCGGAUGCCUUCAAA is 264 ± 250 µM; for AUAAAAGCGCCAGAACUACAGAAAUGUAGUAGACGAGGAGGAGGUUUAUCGAAUUUUCGGCGGGUGCCUCCAAA it is 1050 ± 810 µM.
For AUAAAAGCGCCAGAACUACAGAAAUGUAGAUGACGAGGAGGAGGUUGAUCGAAUUUUCGGCGGAUGCCUCCAAA, the KM was found to be 635 ± 430 µM.
Same read-out and setting: the figure for AUAAAAGCGCCAGAACUACAGAAAUGUAGAUGACGAGGAGGAGGUUUAUCGAAUUUUCGGCGGAGGCCUCCAAA is 5250 ± 1000 µM; for AUAAAAGCGCCAGAACUACAGAAAUGUAGGUGACGAGGAGGAGGUUUAUCGAAUGUUCGGCGGAUGCCUCUAAA it is 1690 ± 1400 µM; for AUAAAAGCGCCAGAACUACAGAAAUGUAGUGUACGAGGAGGAGGUUUAUCGAAUUUUCGGCGGAUGCCUCCAAA it is 3150 ± 2400 µM.
The same measure, in the same setting: under AUAAAAGCGCCAGAACUACAGAAAUGUAGCUGACGAGGAGGAGGUUUAUCGAAUUUUGGGCGGAUGCCUCCAAA stands 184 ± 120 µM.

Another data set covers variants of B1. The data set is described as follows: self-cleavage kobs at 640 uM GlcN6P; higher = faster cleavage; RNA array. The note with it: with glucosamine-6-phosphate. An outline of the steps: as §1
AUAAAAGCGCCAGAACUACAGAAAUGUAGUAGACGAGGAGGAGGUUUAUCGAAUUUUCGGCGGAUGCCUACAAA: the “self-cleavage kobs at 640 uM GlcN6P” value was determined as 6.75e-05 ± 3.5e-05 s⁻¹.
The same measure, in the same setting: the figure for AUAAAAGCGCCAGAACUACAGAAAUGUAGGUCACGAGGAGGAGGUUUAUCGAAUUUUCGGCGGAUGCCUCCAAA is 3.68e-05 ± 1.9e-05 s⁻¹.

The variants in the next data set derive from B1. The data set is described as follows: self-cleavage kobs at 160 uM GlcN6P; higher = faster cleavage; RNA array. The note with it: with glucosamine-6-phosphate. In short, it runs like this:
as §1
In the case of AUAAAAGCGCCAGAACUACAGAAAUGUAUUUGACGAGGAAGAGGAUUAUCGAAUUUUCGGCGGAUGCCUCCAAA, the “self-cleavage kobs at 160 uM GlcN6P” value is 2.15e-05 ± 2e-05 s⁻¹.
